PubChem BioAssay AID652243 – Drosophila RNAi Screening Center | 2013
In all, the deposit lists about 24,000 reagents; below is a random part of those that have a named target and a result. Over the whole deposit, 246 (1%) were called active. 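Plates not normalised; calls are printed but the firefly/Renilla ratio behind them is not deposited; fold cut for lowering reported inconsistently.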 The raw values are shown without normalisation. The numbers tell different reagents against one gene apart. A plus sign joins genes that one reagent is predicted to hit. Not stated in the record: the amount of reagent.

Purpose: 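Fly genes required for human androgen receptor driven transcription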 (primary screen)
System: Drosophila S2R+ cells
Knock-down reagent: long dsRNA against Drosophila genes
Duration: 72 h (48 h, then 24 h hormone)
Challenge: synthetic androgen R1881 at 10 nM for 24 h
Measurement: 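Per-well raw luminescence of the androgen-driven firefly reporter and of the Renilla control, two replicates each, without normalisation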
Scale: firefly reporter light: higher = more light from androgen-responsive reporter; Renilla control light: higher = more constitutive control signal (cell number, transfection)
Hit rule: 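Across duplicate plates, a knock-down whose log firefly/Renilla ratio shifted a set fold down or up from the GFP/LacZ control mean was a hit; the downward cut appears as both 1.5 and 3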
Meaning of the calls: active = hit: reporter lowered or raised; inactive = no hit

| target gene | reagent | firefly reporter light, replicate 1 | firefly reporter light, replicate 2 | Renilla control light, replicate 1 | Renilla control light, replicate 2 | activity call |
| --- | --- | --- | --- | --- | --- | --- |
| CG4229 | 1 | 39550 | 49914 | 4.82e5 | 3.63e5 | inactive |
| CG6290 | 1 | 62872 | 1.01e5 | 7.23e5 | 8.52e5 | inactive |
| CG6290 | 2 | 1.20e6 | 1.35e6 | 1.10e6 | 1.24e6 | inactive |
| Diedel3 | 1 | 2.90e5 | 1.73e5 | 1.02e6 | 5.36e5 | inactive |
| Brca2 | 1 | 3.71e5 | 3.11e5 | 1.91e6 | 1.82e6 | inactive |
| Brca2 | 2 | 3.79e5 | 2.77e5 | 1.86e6 | 1.35e6 | inactive |
| jb | 1 | 2.81e5 | 1.95e5 | 1.07e6 | 4.25e5 | inactive |
| Ir7a | 1 | 1.22e5 | 2.06e5 | 1.49e6 | 2.38e6 | inactive |
| Cirl | 1 | 2.74e5 | 2.82e5 | 1.09e6 | 1.43e6 | active |
| Cirl | 2 | 3.36e5 | 5.02e5 | 9.80e5 | 1.34e6 | inactive |
| CG7778 | 1 | 5.98e5 | 1.15e6 | 1.85e6 | 1.70e6 | inactive |
| CG7778 | 2 | 1.94e5 | 3.32e5 | 6.81e5 | 7.96e5 | inactive |
| CG33060 | 1 | 2.28e5 | 2.17e5 | 2.02e6 | 1.88e6 | inactive |
| CG5346 | 1 | 3.02e5 | 2.55e5 | 2.56e6 | 3.38e6 | inactive |
| CG5346 | 2 | 3.71e5 | 3.75e5 | 1.11e6 | 1.08e6 | inactive |
| CG5346 | 3 | 2.78e5 | 3.21e5 | 7.61e5 | 1.02e6 | inactive |
| CG8435 | 1 | 2.17e5 | 1.09e5 | 5.92e5 | 3.24e5 | inactive |
| CG8435 | 2 | 4.91e5 | 2.86e5 | 1.50e6 | 1.47e6 | inactive |
| CG4646 | 1 | 2.35e5 | 1.15e5 | 1.63e6 | 1.09e6 | inactive |
| LeuRS-m | 1 | 7.83e5 | 1.20e6 | 9.10e5 | 1.04e6 | inactive |
| LeuRS-m | 2 | 4.12e5 | 3.94e5 | 1.47e6 | 1.42e6 | inactive |
| CG31142 | 1 | 2.21e5 | 57943 | 1.40e5 | 73335 | inactive |
| eIF4EHP | 1 | 2.17e5 | 1.97e5 | 3.42e5 | 5.31e5 | inactive |
| eIF4EHP | 2 | 50491 | 54792 | 5.60e5 | 5.76e5 | inactive |

5 entries from above, ordered by “firefly reporter light, replicate 1”, ascending:
| target gene | reagent | firefly reporter light, replicate 1 | firefly reporter light, replicate 2 | Renilla control light, replicate 1 | Renilla control light, replicate 2 | activity call |
| --- | --- | --- | --- | --- | --- | --- |
| eIF4EHP | 1 | 2.17e5 | 1.97e5 | 3.42e5 | 5.31e5 | inactive |
| CG31142 | 1 | 2.21e5 | 57943 | 1.40e5 | 73335 | inactive |
| CG4646 | 1 | 2.35e5 | 1.15e5 | 1.63e6 | 1.09e6 | inactive |
| LeuRS-m | 2 | 4.12e5 | 3.94e5 | 1.47e6 | 1.42e6 | inactive |
| LeuRS-m | 1 | 7.83e5 | 1.20e6 | 9.10e5 | 1.04e6 | inactive |

Further results follow:
| target gene | reagent | firefly reporter light, replicate 1 | firefly reporter light, replicate 2 | Renilla control light, replicate 1 | Renilla control light, replicate 2 | activity call |
| --- | --- | --- | --- | --- | --- | --- |
| CG5937 | 1 | 1.52e5 | 2.26e5 | 1.33e6 | 1.59e6 | inactive |
| CG5937 | 2 | 2.85e5 | 2.49e5 | 5.92e5 | 6.51e5 | inactive |
| GatA | 1 | 1.11e5 | 85084 | 1.07e6 | 1.07e6 | inactive |
| CaMKII | 1 | 1.08e5 | 97516 | 7.91e5 | 5.20e5 | inactive |
| CaMKII | 2 | – | – | – | – | inactive |
| CaMKII | 3 | – | – | – | – | inactive |
| Etfb | 1 | 85505 | 1.18e5 | 1.13e6 | 8.61e5 | inactive |
| morgue | 1 | 1.39e6 | 1.94e6 | 1.78e6 | 1.91e6 | inactive |
| mey | 1 | 62265 | 63868 | 6.11e5 | 4.64e5 | inactive |
| mey | 2 | 2.59e5 | 2.73e5 | 6.19e5 | 7.93e5 | inactive |
| AstC | 1 | 2.64e5 | 2.43e5 | 1.97e6 | 2.28e6 | inactive |
| mats | 1 | 1.91e5 | 1.50e5 | 3.78e5 | 6.42e5 | inactive |
| mats | 2 | 69621 | 88333 | 5.70e5 | 7.39e5 | inactive |
| CG16826 | 1 | 2.16e5 | 2.24e5 | 1.24e6 | 1.30e6 | inactive |
| tap | 1 | 1.69e5 | 1.42e5 | 2.09e6 | 1.85e6 | inactive |
| Cp16 | 1 | 2.45e5 | 2.50e5 | 2.47e6 | 2.60e6 | inactive |
| Cp16 | 2 | 8.57e5 | 5.52e5 | 6.93e5 | 4.71e5 | inactive |
| asRNA:Eig63F-2 | 1 | 5.24e5 | 2.85e5 | 1.62e6 | 8.45e5 | inactive |
| Cyp316a1 | 1 | 85954 | 1.62e5 | 1.18e6 | 1.90e6 | inactive |
| Cyp316a1 | 2 | 6.64e5 | 3.40e5 | 1.06e6 | 1.16e6 | inactive |
| CG5946 + CG11597 | 1 | – | – | – | – | inactive |
| bumpel | 1 | 1.21e5 | 1.44e5 | 2.28e6 | 2.71e6 | inactive |
| CG7201 | 1 | 2.50e5 | 2.28e5 | 3.30e6 | 2.31e6 | inactive |
| BthD | 1 | 5.03e5 | 6.31e5 | 2.45e6 | 2.69e6 | inactive |
| BthD | 2 | 4.58e5 | 5.26e5 | 8.29e5 | 7.19e5 | inactive |
| CG15535 | 1 | 3.22e5 | 2.86e5 | 2.41e6 | 3.45e6 | inactive |
| CG9727 | 1 | 39121 | 28903 | 3.10e5 | 3.22e5 | inactive |
| CG9727 | 2 | 3.50e5 | 3.16e5 | 1.20e6 | 9.52e5 | inactive |
| CG1288 | 1 | 54237 | 93196 | 1.26e6 | 1.36e6 | inactive |
| CG1288 | 2 | 7.81e5 | 7.83e5 | 1.09e6 | 1.17e6 | inactive |
| CG18213 | 1 | 1.96e5 | 2.44e5 | 3.09e6 | 3.52e6 | inactive |
| Zdhhc8 | 1 | 38238 | 33821 | 4.47e5 | 5.25e5 | inactive |
| Zdhhc8 | 2 | 1.96e5 | 3.40e5 | 2.98e6 | 3.02e6 | inactive |
| CG14397 | 1 | 1.55e5 | 2.15e5 | 1.65e6 | 1.79e6 | inactive |
